Source: paper PMC11479587
No constants are given. Whether binding was seen depends on the method and setting. A result given as binding can be weak or reduced; the word gives no strength.

Sequences of proteins named here, by UniProt entry; tags and fusion partners are left off. A change or cut given only in a name is not applied to a line headed by its entry.
UniProt P10591: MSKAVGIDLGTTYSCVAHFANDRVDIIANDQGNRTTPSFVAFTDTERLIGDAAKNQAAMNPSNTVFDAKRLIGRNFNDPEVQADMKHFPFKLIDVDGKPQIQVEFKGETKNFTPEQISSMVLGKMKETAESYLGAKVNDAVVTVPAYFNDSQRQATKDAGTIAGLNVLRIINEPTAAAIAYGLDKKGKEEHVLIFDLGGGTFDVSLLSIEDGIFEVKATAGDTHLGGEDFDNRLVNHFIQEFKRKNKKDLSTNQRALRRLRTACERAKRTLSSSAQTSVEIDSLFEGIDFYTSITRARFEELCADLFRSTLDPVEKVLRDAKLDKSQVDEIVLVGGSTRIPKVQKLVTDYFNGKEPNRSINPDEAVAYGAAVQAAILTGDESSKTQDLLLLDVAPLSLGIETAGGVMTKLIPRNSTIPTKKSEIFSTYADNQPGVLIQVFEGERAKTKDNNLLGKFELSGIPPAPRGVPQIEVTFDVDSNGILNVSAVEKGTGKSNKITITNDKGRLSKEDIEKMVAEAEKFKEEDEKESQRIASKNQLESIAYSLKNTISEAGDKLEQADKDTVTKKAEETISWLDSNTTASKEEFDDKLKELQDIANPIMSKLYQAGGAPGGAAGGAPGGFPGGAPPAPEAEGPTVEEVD
UniProt P32589: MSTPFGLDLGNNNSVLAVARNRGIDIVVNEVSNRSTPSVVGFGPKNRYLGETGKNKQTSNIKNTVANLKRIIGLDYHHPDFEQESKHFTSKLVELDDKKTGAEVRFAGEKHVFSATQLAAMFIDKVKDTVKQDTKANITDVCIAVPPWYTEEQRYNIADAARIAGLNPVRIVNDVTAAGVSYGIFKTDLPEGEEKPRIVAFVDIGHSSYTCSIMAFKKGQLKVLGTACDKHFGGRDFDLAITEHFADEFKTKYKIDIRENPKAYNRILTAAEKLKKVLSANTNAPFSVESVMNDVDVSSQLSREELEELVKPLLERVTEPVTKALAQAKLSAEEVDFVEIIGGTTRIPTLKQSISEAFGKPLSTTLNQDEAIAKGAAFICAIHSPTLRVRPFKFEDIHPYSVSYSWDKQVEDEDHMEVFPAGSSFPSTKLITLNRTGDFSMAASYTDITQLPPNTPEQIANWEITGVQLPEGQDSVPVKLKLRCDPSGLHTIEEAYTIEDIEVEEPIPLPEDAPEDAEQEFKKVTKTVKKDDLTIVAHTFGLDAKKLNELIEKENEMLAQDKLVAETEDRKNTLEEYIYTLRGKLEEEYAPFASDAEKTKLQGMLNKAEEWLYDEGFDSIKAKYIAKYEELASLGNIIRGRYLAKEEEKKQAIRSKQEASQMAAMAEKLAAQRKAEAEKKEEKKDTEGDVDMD

Molecular target: Ssa1 (yeast (S. cerevisiae)) (UniProt P10591)
Test: BLI; His-Sis1 (0.4 µM, to saturation) on the Ni-NTA sensor through the His6-SUMO tag; 1 µM Ssa1 with increasing concentrations of Sse1 or Sse1-2; buffer A with 5 mM ATP and 2 mM DTT; both purified

Q: How did the binding turn out when “Sse1-2 variant (N572Y E575A) (from UniProt P32589)” was run?
A: binds weakly
